Laboratory results published in publication PMC7862700.
This is a selection; strong and weak results do not stand in their true shares. At the low end of the ranking the order means little.

By UniProt entry, the sequences of proteins in these tests, tags left out. Where a name states a change or a piece, a line headed by the entry shows the natural chain unless it says otherwise.
UniProt P41212: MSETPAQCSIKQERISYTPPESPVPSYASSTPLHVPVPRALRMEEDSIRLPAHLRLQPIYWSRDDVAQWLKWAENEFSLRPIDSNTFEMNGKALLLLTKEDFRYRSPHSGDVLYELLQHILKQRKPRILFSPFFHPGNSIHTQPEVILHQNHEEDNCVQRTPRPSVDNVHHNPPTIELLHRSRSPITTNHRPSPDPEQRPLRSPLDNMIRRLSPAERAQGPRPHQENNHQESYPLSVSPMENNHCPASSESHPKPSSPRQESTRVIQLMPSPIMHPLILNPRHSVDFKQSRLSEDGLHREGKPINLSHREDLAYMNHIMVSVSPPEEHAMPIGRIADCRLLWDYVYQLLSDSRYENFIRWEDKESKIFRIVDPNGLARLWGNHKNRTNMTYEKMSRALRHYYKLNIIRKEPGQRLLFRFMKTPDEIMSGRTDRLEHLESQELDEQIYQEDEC

These sequences were tested against ETV6 (UniProt P41212) (assay: DAPPL (digital affinity profiling via proximity ligation, sequencing)). Settings: 10 mM Tris-HCl pH 7.5, 50 mM NaCl, 1 mM DTT, 4% glycerol, room temperature, 30 min; GST-TFs on glutathione beads, 16-mer random dsDNA library, 0.1% …; high values mean tight binding; double strand, one strand shown; scale: fold enrichment (6-mer frequency, TF over GST control).

Row | Sequence | binding signal
1 | GACATC | 1.33
2 | CTCCTG | 1.59
3 | CGCTTC | 2.35
4 | TACTGG | 1.15
5 | CGAAAC | 1.16
6 | GCCAAT | 0.997
7 | CTCGTA | 1.2
8 | ATTTCA | 1.27
9 | TACCGC | 1.04
10 | TTCACT | 1.23
11 | ATAAAT | 1.25
12 | ACATAC | 1.17
13 | CATTTA | 1.13
14 | ATGTCC | 1.57
15 | GATATA | 1.12
16 | TATCGA | 1.35
17 | TCTTCA | 1.25
18 | CTCCGG | 1.56
19 | GTTTAA | 1.13
20 | TTTCGA | 1.33

Row | Sequence | binding signal
21 | CGGCTA | 1.27
22 | TACTGA | 0.943
23 | TAATGT | 1.09
24 | GTTTCC | 3.24
25 | GACCTG | 1.14
26 | CCGGAA | 6.11
27 | TTCCCT | 1.66
28 | ACTCTA | 1.33
29 | CGATTC | 1.11
30 | CCAATG | 1.14
31 | CTGCAA | 1.33
32 | CTATGA | 0.963
33 | TAAATA | 1.32
34 | AAATCC | 1.6
35 | CCGATG | 0.965
36 | ATTTCT | 1.39
37 | GTATGC | 1.09
38 | AATTGT | 1.26
39 | TGGATG | 1.44

Numbers 21 to 23 from above:
Row | Sequence | binding signal
21 | CGGCTA | 1.27
22 | TACTGA | 0.943
23 | TAATGT | 1.09
